Laboratory results published in patent publication US20250057951A1, “DISCERNIBLE CELL SURFACE PROTEIN VARIANTS OF CD117 FOR USE IN CELL THERAPY” (UNIVERSITÄT BASEL, priority 2021, published 2025).
These are yes or no findings as the source states them, for the method shown. Some binding calls cover weakened binding; strength is not graded here.

Chains of the proteins cited; added tags and fusions are not shown. Lines headed by an entry give the natural chain unless they say otherwise; changes in a name come on top.
UniProt P21583: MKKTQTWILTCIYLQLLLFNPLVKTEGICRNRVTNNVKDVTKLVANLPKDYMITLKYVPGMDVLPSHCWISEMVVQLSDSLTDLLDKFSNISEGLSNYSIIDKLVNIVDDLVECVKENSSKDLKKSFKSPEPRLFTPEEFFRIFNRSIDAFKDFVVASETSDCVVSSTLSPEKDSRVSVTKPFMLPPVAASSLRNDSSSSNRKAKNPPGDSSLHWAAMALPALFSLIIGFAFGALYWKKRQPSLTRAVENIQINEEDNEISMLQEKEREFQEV

How the values were obtained:
Assay in all cases: BLI (Octet), steady state: biotinylated SCF on streptavidin biosensor, CD117 D1-2-3 variant as analyte; KD relative to WT
I201V = molecular target: I201V
E73M = molecular target: E73M
S123D = molecular target: S123D
Y259H = molecular target: Y259H
K127G = molecular target: K127G
E73I = molecular target: E73I
E73W = molecular target: E73W
Y259C = molecular target: Y259C
T74M = molecular target: T74M
E73F = molecular target: E73F

Measured: binding

Biotinylated Avitag-hSCF (from UniProt P21583 26-190) (ligand)
binds: I201V | E73M | S123D | Y259H | K127G | E73I | E73W | Y259C | T74M | E73F
